The assay concerns the target Granulin A (His-GRN A) (human) (UniProt P28799). Nature of the assay: pull-down; His-GRN A (100 μg) held on cobalt chelate resin (Pierce polyHis pull-down kit), incubated with crude HepG-2 lysate 4 h at 4°C, 20 mM imidazole, washed with TBS, eluted with 290 mM imidazole; SDS-PAGE with Coomassie, band identified by LC-MS/MS, and Western blot with anti-ENO1; only the target purified.

Chains of the proteins cited; added tags and fusions are not shown. Residues count along the entry.
UniProt P28799, residues 281-336: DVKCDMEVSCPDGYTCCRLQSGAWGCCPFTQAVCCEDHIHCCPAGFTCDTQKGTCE
UniProt P06733: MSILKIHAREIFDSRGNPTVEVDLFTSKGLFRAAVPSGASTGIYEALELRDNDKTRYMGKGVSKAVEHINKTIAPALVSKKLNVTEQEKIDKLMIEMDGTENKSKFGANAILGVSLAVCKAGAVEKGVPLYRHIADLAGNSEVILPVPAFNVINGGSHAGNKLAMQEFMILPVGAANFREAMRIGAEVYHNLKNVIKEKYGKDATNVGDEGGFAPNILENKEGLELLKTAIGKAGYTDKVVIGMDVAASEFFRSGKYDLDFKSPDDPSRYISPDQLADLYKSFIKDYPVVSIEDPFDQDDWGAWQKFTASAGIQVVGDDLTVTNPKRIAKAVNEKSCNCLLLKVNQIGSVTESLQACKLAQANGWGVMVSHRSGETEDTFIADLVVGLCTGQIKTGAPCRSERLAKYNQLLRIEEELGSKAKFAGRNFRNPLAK

No constants are given. Whether binding was seen depends on the method and setting. Binding seen in cells or lysates may run through a third protein. Some entries that bind do so weakly or less than the wild type.

With “α-enolase (ENO1), endogenous in HepG-2 cells (from UniProt P06733 1-434) (enzyme)”, the binding result was “binds”.

For the origin of these results see article PMC5444744, “Interaction between granulin A and enolase 1 attenuates the migration and invasion of human hepatoma cells” (Oncotarget, 2017).
